{"source": "patent US20240150705A1", "about": "“POLYPHENOL INFUSED PROBIOTICS AND METHODS FOR IMPROVED GUT SURVIVABILITY, PERSISTENCE AND COLONIZATION” (THE REGENTS OF THE UNIVERSITY OF CALIFORNIA, priority 2021, published 2024)", "test_system": "L. casei, L. paracasei and L. rhamnosus cells", "assay": "metabolic activity by resazurin fluorescence assay after simulated gastric fluid", "assay_type": "cell-based", "conditions": "infused cells", "procedure": "For this assay, 6 log CFUs/ml of cells (with and without infused phenolic actives) in selective culture media was prepared. 1 mL of each of the samples were added to a flat bottom 24 well culture plates and 50 μM of resazurin was added to each well plates. Plates were sealed with PCR sealing films inside anerobic cabinet to maintain in-situ anaerobic conditions and were immediately incubated at 37° C. for 16 h. Fluorescence data was collected each 5 min at 580 nm (λex=530 nm). The reduction of resazurin was evaluated by the assay. After cells were treated with simulated gastric fluid, 1 mL of each samples was centrifugated (16,000×g for 2 min) and resuspended in 1 mL of MRS broth containing 50 μM of resazurin. Then, plate was incubated at 37° C. for 16 h and read each 5 min (530 nm/580 nm). […] The reduction of resazurin to resorufin (fluorescent form) was measured to correlate with the metabolic activity of three types of probiotic cells with different infused polyphenols and conditions, as shown in FIG. 7 through FIG. 20. The production of resorufin increases the intensity of fluorescence, while the reduction of the peak is related with the production of hydroresorufin.", "note": "Some of these results come from one statement about several compounds together.", "data": [{"smiles": "COc1cc(/C=C/C(=O)CC(=O)/C=C/c2ccc(O)c(OC)c2)ccc1O", "note": "[curcumin]", "values": [{"measurement": "time at which maximum fluorescence intensity was achieved", "value": "8 to 10", "unit": "h"}]}]}
